Results are given in words; binding and its absence hold for the method and conditions named. In cells and extracts the contact can be indirect. Some results given as binding are weak or reduced against the parent protein; the word gives no strength.
Target: T1, wingless Type MMTV Integration Site Family, Member 5 A (WNT5A) (human (endogenous in GC cells; cell line not named for the Co-IP)) (UniProt P41221)
T1 sequence: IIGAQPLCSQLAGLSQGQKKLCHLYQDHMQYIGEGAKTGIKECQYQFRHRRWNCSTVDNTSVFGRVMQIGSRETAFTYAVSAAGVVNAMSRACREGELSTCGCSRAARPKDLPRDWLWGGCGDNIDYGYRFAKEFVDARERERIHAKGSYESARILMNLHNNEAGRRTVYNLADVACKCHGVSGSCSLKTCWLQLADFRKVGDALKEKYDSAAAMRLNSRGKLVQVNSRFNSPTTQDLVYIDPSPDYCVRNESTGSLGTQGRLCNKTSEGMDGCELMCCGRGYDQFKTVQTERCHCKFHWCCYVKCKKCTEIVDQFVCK
Experiment: co-IP; cell lysates incubated with agarose coupled anti-WNT5A, anti-HK2 or anti-IgG; complex eluted, proteins detected by western blot

B1: hexokinase 2 (HK2) (enzyme, UniProt P52789 1-917)
chain: MIASHLLAYFFTELNHDQVQKVDQYLYHMRLSDETLLEISKRFRKEMEKGLGATTHPTAAVKMLPTFVRSTPDGTEHGEFLALDLGGTNFRVLWVKVTDNGLQKVEMENQIYAIPEDIMRGSGTQLFDHIAECLANFMDKLQIKDKKLPLGFTFSFPCHQTKLDESFLVSWTKGFKSSGVEGRDVVALIRKAIQRRGDFDIDIVAVVNDTVGTMMTCGYDDHNCEIGLIVGTGSNACYMEEMRHIDMVEGDEGRMCINMEWGAFGDDGSLNDIRTEFDQEIDMGSLNPGKQLFEKMISGMYMGELVRLILVKMAKEELLFGGKLSPELLNTGRFETKDISDIEGEKDGIRKAREVLMRLGLDPTQEDCVATHRICQIVSTRSASLCAATLAAVLQRIKENKGEERLRSTIGVDGSVYKKHPHFAKRLHKTVRRLVPGCDVRFLRSEDGSGKGAAMVTAVAYRLADQHRARQKTLEHLQLSHDQLLEVKRRMKVEMERGLSKETHASAPVKMLPTYVCATPDGTEKGDFLALDLGGTNFRVLLVRVRNGKWGGVEMHNKIYAIPQEVMHGTGDELFDHIVQCIADFLEYMGMKGVSLPLGFTFSFPCQQNSLDESILLKWTKGFKASGCEGEDVVTLLKEAIHRREEFDLDVVAVVNDTVGTMMTCGFEDPHCEVGLIVGTGSNACYMEEMRNVELVEGEEGRMCVNMEWGAFGDNGCLDDFRTEFDVAVDELSLNPGKQRFEKMISGMYLGEIVRNILIDFTKRGLLFRGRISERLKTRGIFETKFLSQIESDCLALLQVRAILQHLGLESTCDDSIIVKEVCTVVARRAAQLCGAGMAAVVDRIRENRGLDALKVTVGVDGTLYKLHPHFAKVMHETVKDLAPKCDVSFLQSEDGSGKGAALITAVACRIREAGQR
Question: B1 was tested. Which binding did it give?
Answer: binds

From publication PMC11270928
